# Measurements reported in the supplement of paper PMC8728848.
# Some of the results follow.
# Columns and labels:
# Assay in all cases: glycan array binding signal (z-score within array); higher = stronger binding
# Conditions in all cases: glycan notation: IUPAC condensed, linker removed; mutation: R276L
# [1] = biological target: Man(a1-2)Man(a1-3)[Man(a1-2)Man(a1-6)]Man
# Outline: (§1)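 From the Consortium for Functional Glycomics database, 3228 arrays were curated, keeping only those whose protein sequence was available. Binding is given as a within-array Z-score averaged across arrays sharing a protein sequence and across linkers. Negative Z-scores can be read as non-binding.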
# [2] = biological target: Man(a1-2)Man(a1-3)[Man(a1-2)Man(a1-6)]Man(a1-6)[Man(a1-2)Man(a1-2)Man(a1-3)]Man
# Outline: as §1
# [3] = biological target: Man(a1-2)Man(a1-3)[Man(a1-2)Man(a1-6)]Man(a1-6)[Man(a1-2)Man(a1-2)Man(a1-3)]Man(b1-4)GlcNAc(b1-4)GlcNAc
# Outline: as §1
# [4] = biological target: Man(a1-2)Man(a1-3)[Man(a1-6)]Man(a1-6)[Man(a1-2)Man(a1-3)]Man(b1-4)GlcNAc(b1-4)GlcNAc
# Outline: as §1
# [5] = biological target: Man(a1-2)Man(a1-6)[Man(a1-3)]Man(a1-6)[Man(a1-2)Man(a1-2)Man(a1-3)]Man
# Outline: as §1
# [6] = biological target: Man(a1-2)Man(a1-6)[Man(a1-3)]Man(a1-6)[Man(a1-2)Man(a1-2)Man(a1-3)]Man(b1-4)GlcNAc(b1-4)GlcNAc
# Outline: as §1
# Man(a1-3)[Man(a1-6)]Man = biological target: Man(a1-3)[Man(a1-6)]Man
# Outline: as §1
# [7] = biological target: Man(a1-3)[Man(a1-6)]Man(a1-6)[Man(a1-2)Man(a1-3)]Man(b1-4)GlcNAc(b1-4)GlcNAc
# Outline: as §1
# [8] = biological target: Man(a1-3)[Man(a1-6)]Man(a1-6)[Man(a1-3)]Man
# Outline: as §1
# [9] = biological target: Man(a1-3)[Man(a1-6)]Man(a1-6)[Man(a1-3)]Man(b1-4)GlcNAc(b1-4)GlcNAc
# Outline: as §1
# [10] = biological target: Man(a1-3)[Man(a1-6)]Man(b1-4)GlcNAc(b1-4)GlcNAc
# Outline: as §1
# [11] = biological target: Man(a1-3)[Man(a1-6)]Man(b1-4)GlcNAc(b1-4)[Fuc(a1-6)]GlcNAc
# Outline: as §1
# Man(a1-6)Man = biological target: Man(a1-6)Man
# Outline: as §1
# Man(b1-4)GlcNAc = biological target: Man(b1-4)GlcNAc
# Outline: as §1
# MurNAc(b1-4)GlcNAc = biological target: MurNAc(b1-4)GlcNAc
# Outline: as §1
# Neu5Ac(a2-3)Gal = biological target: Neu5Ac(a2-3)Gal
# Outline: as §1
# [12] = biological target: Neu5Ac(a2-3)Gal(b1-3)GalNAc
# Outline: as §1
# [13] = biological target: Neu5Ac(a2-3)Gal(b1-3)GalNAc(b1-3)Gal(a1-4)Gal(b1-4)Glc
# Outline: as §1
# [14] = biological target: Neu5Ac(a2-3)Gal(b1-3)GalNAc(b1-4)Gal(b1-4)Glc
# Outline: as §1
# [15] = biological target: Neu5Ac(a2-3)Gal(b1-3)GalNAc(b1-4)[Neu5Ac(a2-3)]Gal(b1-4)Glc
# Outline: as §1
# [16] = biological target: Neu5Ac(a2-3)Gal(b1-3)GalNAc(b1-4)[Neu5Ac(a2-8)Neu5Ac(a2-3)]Gal(b1-4)Glc
# Outline: as §1
# [17] = biological target: Neu5Ac(a2-3)Gal(b1-3)GalNAc6S
# Outline: as §1
# [18] = biological target: Neu5Ac(a2-3)Gal(b1-3)GlcNAc
# Outline: as §1
# [19] = biological target: Neu5Ac(a2-3)Gal(b1-3)GlcNAc(b1-2)Man
# Outline: as §1
# [20] = biological target: Neu5Ac(a2-3)Gal(b1-3)GlcNAc(b1-2)Man(a1-3)[GlcNAc(b1-4)][Neu5Ac(a2-3)Gal(b1-3)GlcNAc(b1-2)Man(a1-6)]Man(b1-4)GlcNAc(b1-4)GlcNAc
# Outline: as §1
# [21] = biological target: Neu5Ac(a2-3)Gal(b1-3)GlcNAc(b1-2)Man(a1-3)[Neu5Ac(a2-3)Gal(b1-3)GlcNAc(b1-2)Man(a1-6)]Man(b1-4)GlcNAc(b1-4)GlcNAc
# Outline: as §1
# [22] = biological target: Neu5Ac(a2-3)Gal(b1-3)GlcNAc(b1-2)[Neu5Ac(a2-3)Gal(b1-3)GlcNAc(b1-4)]Man(a1-6)[Neu5Ac(a2-3)Gal(b1-3)GlcNAc(b1-2)Man(a1-3)]Man(b1-4)GlcNAc(b1-4)GlcNAc
# Outline: as §1
# [23] = biological target: Neu5Ac(a2-3)Gal(b1-3)GlcNAc(b1-3)Gal(b1-3)GlcNAc
# Outline: as §1
# [24] = biological target: Neu5Ac(a2-3)Gal(b1-3)GlcNAc(b1-3)Gal(b1-4)GlcNAc
# Outline: as §1
# [25] = biological target: Neu5Ac(a2-3)Gal(b1-3)GlcNAc(b1-3)GalNAc
# Outline: as §1
# [26] = biological target: Neu5Ac(a2-3)Gal(b1-3)GlcNAc(b1-6)GalNAc
# Outline: as §1
# [27] = biological target: Neu5Ac(a2-3)Gal(b1-3)GlcNAc6S
# Outline: as §1
# [28] = biological target: Neu5Ac(a2-3)Gal(b1-3)[Fuc(a1-4)]GlcNAc
# Outline: as §1
# [29] = biological target: Neu5Ac(a2-3)Gal(b1-3)[Fuc(a1-4)]GlcNAc(b1-3)Gal(b1-3)[Fuc(a1-4)]GlcNAc
# Outline: as §1
# [30] = biological target: Neu5Ac(a2-3)Gal(b1-3)[Fuc(a1-4)]GlcNAc(b1-3)Gal(b1-4)[Fuc(a1-3)]GlcNAc
# Outline: as §1
# [31] = biological target: Neu5Ac(a2-3)Gal(b1-3)[GlcNAc(b1-6)]GalNAc
# Outline: as §1
# [32] = biological target: Neu5Ac(a2-3)Gal(b1-3)[Neu5Ac(a2-6)]GalNAc
# Outline: as §1
binder,measurement,setting,value
"SUN4P (Saccharomyces cerevisiae), P53616 (protein) MGSSHHHHHHSSGLVPRGSHNGSIYGDLADFSGPYEKFEDGTIPCGQFPSGQGVIPISWLDEGGWSGVENTDTSTGGSCKEGSYCSYACQPGMSKTQWPSDQPSDGRSIGGLLCKDGYLYRSNTDTDYLCEWGVDAAYVVSELSNDVAICLTDYPGTENMVIPTYVQAGDSLPLTVVDQDTYYTWQGLKTSAQYYVNNAGISVEDACVWGSSSSGVGNWAPLNFGAGSSDGVAYLSLIPNPNNGNALNFNVKIVAADDSSTVNGECIYENGSFSGGSDGCTVSVTAGKAKFVLYN",glycan array binding signal (z-score),[1],0.404
same,glycan array binding signal (z-score),[2],-0.104
same,glycan array binding signal (z-score),[3],-0.685
same,glycan array binding signal (z-score),[4],0.466
same,glycan array binding signal (z-score),[5],-0.571
same,glycan array binding signal (z-score),[6],-0.826
same,glycan array binding signal (z-score),Man(a1-3)[Man(a1-6)]Man,0.998
same,glycan array binding signal (z-score),[7],0.811
same,glycan array binding signal (z-score),[8],-1.25
same,glycan array binding signal (z-score),[9],-0.955
same,glycan array binding signal (z-score),[10],-0.241
same,glycan array binding signal (z-score),[11],-0.543
same,glycan array binding signal (z-score),Man(a1-6)Man,-1.04
same,glycan array binding signal (z-score),Man(b1-4)GlcNAc,-1.04
same,glycan array binding signal (z-score),MurNAc(b1-4)GlcNAc,-0.784
same,glycan array binding signal (z-score),Neu5Ac(a2-3)Gal,0.2
same,glycan array binding signal (z-score),[12],-0.583
same,glycan array binding signal (z-score),[13],-1.53
same,glycan array binding signal (z-score),[14],0.344
same,glycan array binding signal (z-score),[15],0.815
same,glycan array binding signal (z-score),[16],0.107
same,glycan array binding signal (z-score),[17],-0.503
same,glycan array binding signal (z-score),[18],0.214
same,glycan array binding signal (z-score),[19],-1.11
same,glycan array binding signal (z-score),[20],-0.361
same,glycan array binding signal (z-score),[21],0.438
same,glycan array binding signal (z-score),[22],1.54
same,glycan array binding signal (z-score),[23],0.735
same,glycan array binding signal (z-score),[24],-0.287
same,glycan array binding signal (z-score),[25],-0.279
same,glycan array binding signal (z-score),[26],-0.635
same,glycan array binding signal (z-score),[27],-0.317
same,glycan array binding signal (z-score),[28],-1.08
same,glycan array binding signal (z-score),[29],-0.862
same,glycan array binding signal (z-score),[30],-0.964
same,glycan array binding signal (z-score),[31],-0.212
same,glycan array binding signal (z-score),[32],-0.468

# Given tab-delimited: part of the list above.
binder	measurement	setting	value
SUN4P (Saccharomyces cerevisiae), P53616 (protein) MGSSHHHHHHSSGLVPRGSHNGSIYGDLADFSGPYEKFEDGTIPCGQFPSGQGVIPISWLDEGGWSGVENTDTSTGGSCKEGSYCSYACQPGMSKTQWPSDQPSDGRSIGGLLCKDGYLYRSNTDTDYLCEWGVDAAYVVSELSNDVAICLTDYPGTENMVIPTYVQAGDSLPLTVVDQDTYYTWQGLKTSAQYYVNNAGISVEDACVWGSSSSGVGNWAPLNFGAGSSDGVAYLSLIPNPNNGNALNFNVKIVAADDSSTVNGECIYENGSFSGGSDGCTVSVTAGKAKFVLYN	glycan array binding signal (z-score)	[3]	-0.685
same	glycan array binding signal (z-score)	Man(a1-3)[Man(a1-6)]Man	0.998
same	glycan array binding signal (z-score)	MurNAc(b1-4)GlcNAc	-0.784
same	glycan array binding signal (z-score)	Neu5Ac(a2-3)Gal	0.2
same	glycan array binding signal (z-score)	[13]	-1.53
same	glycan array binding signal (z-score)	[14]	0.344
same	glycan array binding signal (z-score)	[16]	0.107
